Results are given in words; binding and its absence hold for the method and conditions named. For part of these data: In cells and extracts the contact can be indirect. Some binding calls cover weakened binding; strength is not graded here. For part of these data: Where a sequence is shown, tags or fusion partners need not be part of it. One block for each binder: values may come before it.
How the values were obtained:
[1] = molecular target: T1, GST-Numb fusion protein (from pGEX-P-1-Numb, on glutathione-sepharose beads) (human) (UniProt P49757); assay: GST pull-down of radiolabelled in vitro translated Siah-1 fragments
T1 sequence (looked up): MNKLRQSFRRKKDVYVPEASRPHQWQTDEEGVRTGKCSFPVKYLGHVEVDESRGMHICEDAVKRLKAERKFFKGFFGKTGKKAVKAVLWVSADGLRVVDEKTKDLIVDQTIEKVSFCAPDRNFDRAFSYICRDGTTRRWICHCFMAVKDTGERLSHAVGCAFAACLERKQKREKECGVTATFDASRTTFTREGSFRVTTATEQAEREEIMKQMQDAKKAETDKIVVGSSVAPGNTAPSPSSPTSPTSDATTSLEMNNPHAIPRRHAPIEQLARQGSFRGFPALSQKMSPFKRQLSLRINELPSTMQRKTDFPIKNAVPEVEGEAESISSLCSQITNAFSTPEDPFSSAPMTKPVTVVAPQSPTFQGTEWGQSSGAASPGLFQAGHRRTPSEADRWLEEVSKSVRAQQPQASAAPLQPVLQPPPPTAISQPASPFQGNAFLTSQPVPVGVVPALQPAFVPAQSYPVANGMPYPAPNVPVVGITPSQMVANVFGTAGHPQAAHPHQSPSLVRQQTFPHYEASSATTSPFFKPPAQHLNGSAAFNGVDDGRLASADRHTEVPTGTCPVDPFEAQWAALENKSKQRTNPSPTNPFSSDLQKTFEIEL

[2] = molecular target: T1, GST-Numb fusion protein (from pGEX-P-1-Numb, on glutathione-sepharose beads) (human); assay: GST pull-down of in vitro translated Siah-1, autoradiography
[3] = molecular target: T1, GST-Numb fusion protein (from pGEX-P-1-Numb, on glutathione-sepharose beads) (human); assay: GST pull-down on glutathione-sepharose beads, SDS-PAGE and autoradiography
[4] = molecular target: T2, B42-Numb (yeast two-hybrid target) (human) (UniProt P49757); assay: yeast two-hybrid, growth and β-galactosidase activity
T2 sequence (looked up): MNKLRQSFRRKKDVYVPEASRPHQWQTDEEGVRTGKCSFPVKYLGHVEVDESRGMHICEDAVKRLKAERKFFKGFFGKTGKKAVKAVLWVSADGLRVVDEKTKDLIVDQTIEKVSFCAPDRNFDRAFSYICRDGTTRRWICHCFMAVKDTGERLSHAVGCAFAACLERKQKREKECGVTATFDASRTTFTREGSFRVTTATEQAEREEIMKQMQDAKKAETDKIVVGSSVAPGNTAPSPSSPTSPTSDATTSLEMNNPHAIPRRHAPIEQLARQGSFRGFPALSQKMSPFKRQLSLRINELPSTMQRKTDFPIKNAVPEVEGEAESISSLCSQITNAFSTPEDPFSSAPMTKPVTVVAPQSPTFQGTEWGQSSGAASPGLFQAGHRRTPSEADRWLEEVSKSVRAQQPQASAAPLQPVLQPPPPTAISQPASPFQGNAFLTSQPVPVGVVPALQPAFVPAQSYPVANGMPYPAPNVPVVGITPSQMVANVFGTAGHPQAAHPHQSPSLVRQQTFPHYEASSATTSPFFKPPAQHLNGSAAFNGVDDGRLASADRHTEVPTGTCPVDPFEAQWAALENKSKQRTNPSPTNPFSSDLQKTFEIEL

[5] = molecular target: T3, endogenous Numb of U937 cells and Jurkat cells (UniProt P49757); assay: co-immunoprecipitation with anti-Numb antibody from DTBP-crosslinked U937 and Jurkat lysates, anti-Siah-1 blot
T3 sequence (looked up): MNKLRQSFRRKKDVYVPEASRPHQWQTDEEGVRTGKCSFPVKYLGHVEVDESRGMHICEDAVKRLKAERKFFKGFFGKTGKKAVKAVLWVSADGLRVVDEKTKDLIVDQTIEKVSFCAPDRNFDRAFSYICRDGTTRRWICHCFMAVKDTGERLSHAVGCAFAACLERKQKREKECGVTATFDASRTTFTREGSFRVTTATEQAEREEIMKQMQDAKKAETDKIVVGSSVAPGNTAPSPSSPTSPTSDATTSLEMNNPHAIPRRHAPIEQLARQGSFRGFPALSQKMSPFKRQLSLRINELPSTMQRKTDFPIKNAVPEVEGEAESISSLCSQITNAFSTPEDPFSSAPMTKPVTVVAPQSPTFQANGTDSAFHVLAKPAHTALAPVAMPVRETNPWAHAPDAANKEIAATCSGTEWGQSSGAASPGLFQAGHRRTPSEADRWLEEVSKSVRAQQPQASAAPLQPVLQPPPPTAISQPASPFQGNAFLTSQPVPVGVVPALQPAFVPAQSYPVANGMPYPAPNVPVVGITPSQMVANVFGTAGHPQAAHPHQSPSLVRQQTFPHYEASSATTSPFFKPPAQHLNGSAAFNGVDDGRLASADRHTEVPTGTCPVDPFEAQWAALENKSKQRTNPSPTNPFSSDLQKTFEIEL

[6] = molecular target: T4, B42-Siah-1 (yeast two-hybrid target, positive control) (human), Q8IUQ4; assay: yeast two-hybrid, growth and β-galactosidase activity (positive control); conditions: remark: other sources report otherwise
T4 chain: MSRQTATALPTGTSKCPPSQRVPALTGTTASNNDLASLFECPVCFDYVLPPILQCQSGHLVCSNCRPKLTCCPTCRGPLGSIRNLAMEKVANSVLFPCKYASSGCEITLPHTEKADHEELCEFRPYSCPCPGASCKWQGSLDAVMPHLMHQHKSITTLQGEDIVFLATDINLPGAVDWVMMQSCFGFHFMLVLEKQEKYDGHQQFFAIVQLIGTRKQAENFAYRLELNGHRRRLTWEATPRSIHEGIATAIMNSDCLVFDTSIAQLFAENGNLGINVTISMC

B3: LexA-Siah-1 (yeast two-hybrid bait) (protein, human, UniProt Q8IUQ4 1-282, looked up, not shown: large carriers)
chain: MSRQTATALPTGTSKCPPSQRVPALTGTTASNNDLASLFECPVCFDYVLPPILQCQSGHLVCSNCRPKLTCCPTCRGPLGSIRNLAMEKVANSVLFPCKYASSGCEITLPHTEKADHEELCEFRPYSCPCPGASCKWQGSLDAVMPHLMHQHKSITTLQGEDIVFLATDINLPGAVDWVMMQSCFGFHFMLVLEKQEKYDGHQQFFAIVQLIGTRKQAENFAYRLELNGHRRRLTWEATPRSIHEGIATAIMNSDCLVFDTSIAQLFAENGNLGINVTISMC
binding [4]: binds

B5: LexA-Siah-1 (yeast two-hybrid bait), Q8IUQ4 1-282 (protein, human, UniProt Q8IUQ4 1-282, looked up, not shown: large carriers)
chain: MSRQTATALPTGTSKCPPSQRVPALTGTTASNNDLASLFECPVCFDYVLPPILQCQSGHLVCSNCRPKLTCCPTCRGPLGSIRNLAMEKVANSVLFPCKYASSGCEITLPHTEKADHEELCEFRPYSCPCPGASCKWQGSLDAVMPHLMHQHKSITTLQGEDIVFLATDINLPGAVDWVMMQSCFGFHFMLVLEKQEKYDGHQQFFAIVQLIGTRKQAENFAYRLELNGHRRRLTWEATPRSIHEGIATAIMNSDCLVFDTSIAQLFAENGNLGINVTISMC
binding [6]: binds

The next lines start with the values.

binding [1]: binds
B1: Siah-1 fragment delta-10, amino acids 180-211 (radiolabelled, in vitro translated) (peptide, UniProt Q8IUQ4 180-211, looked up)
chain: MMQSCFGFHFMLVLEKQEKYDGHQQFFAIVQL
modifications: radiolabelled by in vitro translation

binding [2]: binds | binding [3]: binds
B2: Siah-1 protein (human), untagged; obtained by in vitro translation (35S-labelled) or expressed from plasmid pBKRSV in 293T cells (enzyme, UniProt Q8IUQ4 1-282, looked up)
chain: MSRQTATALPTGTSKCPPSQRVPALTGTTASNNDLASLFECPVCFDYVLPPILQCQSGHLVCSNCRPKLTCCPTCRGPLGSIRNLAMEKVANSVLFPCKYASSGCEITLPHTEKADHEELCEFRPYSCPCPGASCKWQGSLDAVMPHLMHQHKSITTLQGEDIVFLATDINLPGAVDWVMMQSCFGFHFMLVLEKQEKYDGHQQFFAIVQLIGTRKQAENFAYRLELNGHRRRLTWEATPRSIHEGIATAIMNSDCLVFDTSIAQLFAENGNLGINVTISMC
modifications: 35S-methionine label in the in vitro translation product

binding [5]: binds
B4: endogenous Siah-1 of U937 cells and Jurkat cells (32 kDa monomeric form) (enzyme, UniProt Q8IUQ4 1-282, looked up)
chain: MSRQTATALPTGTSKCPPSQRVPALTGTTASNNDLASLFECPVCFDYVLPPILQCQSGHLVCSNCRPKLTCCPTCRGPLGSIRNLAMEKVANSVLFPCKYASSGCEITLPHTEKADHEELCEFRPYSCPCPGASCKWQGSLDAVMPHLMHQHKSITTLQGEDIVFLATDINLPGAVDWVMMQSCFGFHFMLVLEKQEKYDGHQQFFAIVQLIGTRKQAENFAYRLELNGHRRRLTWEATPRSIHEGIATAIMNSDCLVFDTSIAQLFAENGNLGINVTISMC

— US20040175773A1, “Screening method based on siah-numb interaction” (priority 2000, published 2004)
